Source: article PMC7819943, “Rice protein-binding microarrays: a tool to detect cis-acting elements near promoter regions in rice”
Some of the results follow.

biological target: T1, OsSMF1 (Oryza sativa, UniProt Q6ZLB0 1-436); assay: protein-binding microarray (RPBM); PBS, 2% BSA, 51.3 ng/ul salmon testes DNA, 50 uM zinc acetate, 200 nM TF, 25 C, 1 h; high values mean tight binding; settings: protein: recombinant; tags: N-terminal polyhistidine and DsRed monomer fusion (pET32a); chain copies: 2; label: CyDye5-dUTP incorporated in the synthesized complementary strand; 3' TTTTT single-stranded linker to array surface; dsDNA, one strand shown
T1 sequence: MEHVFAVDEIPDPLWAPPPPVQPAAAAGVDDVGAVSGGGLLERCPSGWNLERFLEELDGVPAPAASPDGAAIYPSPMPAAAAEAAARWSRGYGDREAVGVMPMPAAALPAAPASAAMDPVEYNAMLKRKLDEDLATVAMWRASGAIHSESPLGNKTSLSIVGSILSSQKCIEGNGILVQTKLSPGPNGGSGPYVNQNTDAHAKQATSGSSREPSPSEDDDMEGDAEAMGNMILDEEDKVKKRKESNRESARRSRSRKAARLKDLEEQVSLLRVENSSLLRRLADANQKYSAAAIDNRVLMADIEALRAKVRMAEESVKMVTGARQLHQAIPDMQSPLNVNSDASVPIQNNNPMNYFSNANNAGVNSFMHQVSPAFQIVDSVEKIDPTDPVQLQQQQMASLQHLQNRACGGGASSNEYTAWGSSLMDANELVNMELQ
Procedure, shortened: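 A custom Agilent array was converted to double-stranded form by primer extension with Cy5-dUTP and blocked with 2% BSA. Protein at 200 nM in PBS with 2% BSA, salmon testes DNA and 50 µM zinc acetate was applied for 1 h at 25 °C, followed by washing. The proteins were polyhistidine–DsRed N-terminal fusions of transcription factors, expressed in E. coli BL21-CodonPlus and Ni–NTA-purified. The binding signal is per-feature fluorescence intensity (arbitrary units) from an Axon 4000B scanner.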

Sequence	binding signal
CCGTGCCGAGTCCGAGATGCCGAGAGCCGTGGCACGTCACCGGAGTCACCTAGTGCAG	9970 fluorescence intensity (a.u.)
CAAGTTTAGGGACCGGGATGACACAATTGAACAAGTTTGACGGAGTCACCTAGTGCAG	3510 fluorescence intensity (a.u.)
CGCCTGGGAGCTGTACGGGTGCGTCCTCGTCTCGCTGGCGCGGAGTCACCTAGTGCAG	3230 fluorescence intensity (a.u.)
GCCCAGTCCACCATCGTCGTCACCCACGAGGAGACGCCGCCGGAGTCACCTAGTGCAG	4630 fluorescence intensity (a.u.)
GTATTGACAGCCACTCGGCCTATCCATTTTGCGTCCAATACGGAGTCACCTAGTGCAG	16200 fluorescence intensity (a.u.)
TTGTATGTAAATTGTGAGACGAATCTTTTGAGCCTAATTACGGAGTCACCTAGTGCAG	32500 fluorescence intensity (a.u.)
ATTCTCTTGTGTGCAGCACTATCGTCAGTGGCCACGCTTGCGGAGTCACCTAGTGCAG	3860 fluorescence intensity (a.u.)
CAACTTTGGAAGAACTAAACACAGCATATGACAGTGCAGTCGGAGTCACCTAGTGCAG	4130 fluorescence intensity (a.u.)
GGCATGGGCCCTGCGGTTCGGCGGCAGTGACGAGCGGCAACGGAGTCACCTAGTGCAG	3930 fluorescence intensity (a.u.)
TCCGCCTCGGCGCCACCTGACTCAGCCTCCCCTCCCCGGCCGGAGTCACCTAGTGCAG	10900 fluorescence intensity (a.u.)
TCCACCACCGCGGCAAGTTCTACTCCATCACCTACTCCGGCGGAGTCACCTAGTGCAG	3720 fluorescence intensity (a.u.)
CCTGGTGTAGACTCTAGTACCAGATGTCGTGGGAGATTTTCGGAGTCACCTAGTGCAG	3970 fluorescence intensity (a.u.)
GTGCGGCGTGCCGTACACCGGCGCCAGCATCGCCGTGCTTCGGAGTCACCTAGTGCAG	3560 fluorescence intensity (a.u.)
TATCCAGTTGGGCACATTTGACCTGTCTCTGACCTGACAACGGAGTCACCTAGTGCAG	3760 fluorescence intensity (a.u.)
TTACAGGATTATATATCATGTTTATCTATTCGTCTTACTACGGAGTCACCTAGTGCAG	39500 fluorescence intensity (a.u.)
CACTCGCGCCACCCAATTGCACGCATTTACAATTCAATTCCGGAGTCACCTAGTGCAG	3620 fluorescence intensity (a.u.)
TTTCCTCCTCGCCGCCGTCGCGTGGCGCGATGGCCGCCCCCGGAGTCACCTAGTGCAG	3750 fluorescence intensity (a.u.)
CACTTGGTAATTACTTCTACTATGTCATCCTTATCATAATCGGAGTCACCTAGTGCAG	3200 fluorescence intensity (a.u.)
CAAACCAAGCAAACGTTTGACAAGCGATGTGTGTCACTGTCGGAGTCACCTAGTGCAG	4110 fluorescence intensity (a.u.)
CCGGAGAATCTCATGTTGCCTAGTCGCCTAACCCGCCTAACGGAGTCACCTAGTGCAG	26300 fluorescence intensity (a.u.)
CATCTCCACCTCTCCGATGGCCACGCTATCGATTTCCTCTCGGAGTCACCTAGTGCAG	3420 fluorescence intensity (a.u.)

Sequence	binding signal
GATGGATGATAGTTCTGTAGTATATATGACGACAGTCACTCGGAGTCACCTAGTGCAG	3490 fluorescence intensity (a.u.)
ACAGATAGTCTCACGCTAATATATACTTCTCTTGTTAGGTCGGAGTCACCTAGTGCAG	3650 fluorescence intensity (a.u.)
AATCTATCGACGCCACCGATCGACCTACGCCTGCAAATTACGGAGTCACCTAGTGCAG	3770 fluorescence intensity (a.u.)
CTCCTCATCCTCATCGTCGCCGCCGCCCACGTCGTCTCGCCGGAGTCACCTAGTGCAG	6120 fluorescence intensity (a.u.)
GCACGTGGTGGGCTGAGGTGTTGGGCCGTGGTCACGTGGGCGGAGTCACCTAGTGCAG	3160 fluorescence intensity (a.u.)
CGACCGATGTGCGGTGCACTCGTGCAACCGCGTCGTCGCTCGGAGTCACCTAGTGCAG	3390 fluorescence intensity (a.u.)
CATCCATGGCATAAAGCTCCCTCCTCAGCTCCCACCTCCGCGGAGTCACCTAGTGCAG	3260 fluorescence intensity (a.u.)
CTTCTGCTTCTTATCAGCTTTACTGCGAGTTTCCGAGCACCGGAGTCACCTAGTGCAG	16700 fluorescence intensity (a.u.)
GGGTCACAGTTCCGGTGGCCTACCGAAGACCACGCGTACGCGGAGTCACCTAGTGCAG	3650 fluorescence intensity (a.u.)
CTGCGCGTAGAAGTGACGCAAGAAGGCAGCGGGCCCACTACGGAGTCACCTAGTGCAG	3230 fluorescence intensity (a.u.)
TGTTATAGTGTAATTATATATAATTACATTATAGCATATACGGAGTCACCTAGTGCAG	3420 fluorescence intensity (a.u.)
AACGGGTATAGTTGCATTACCGCTTTCCTCAGTGCGTCATCGGAGTCACCTAGTGCAG	3480 fluorescence intensity (a.u.)
TCTAAGACTGAACTTTCCTGTATACATATATTTTGAAAAGCGGAGTCACCTAGTGCAG	24600 fluorescence intensity (a.u.)
GGAGATCATAGTTTGTTTTGGTGCTGTCTGTCTTGGTAGTCGGAGTCACCTAGTGCAG	20900 fluorescence intensity (a.u.)
TATCAAATATTTTGATAATGCCAAGTCATTTTGGAGGTTCCGGAGTCACCTAGTGCAG	3790 fluorescence intensity (a.u.)
TCTCCTCTCGCTCTCGCCATCTCGCCGCCGGCCTCCTCCACGGAGTCACCTAGTGCAG	3240 fluorescence intensity (a.u.)
CGATCTCCCGGCGTGCCAAGGACATAAACACGTAAGGCGGCGGAGTCACCTAGTGCAG	5600 fluorescence intensity (a.u.)
TCTTTGGGAGCGTATGGCGCATGCTTCCCAGCTGACGAGGCGGAGTCACCTAGTGCAG	6270 fluorescence intensity (a.u.)
GGCCTGCGTGTGATCCTGGATTTCGATCAATTGTGTGTCACGGAGTCACCTAGTGCAG	3750 fluorescence intensity (a.u.)
CTACAAATACGTAGCGTCACTCGCTTGCATTGCATCGCATCGGAGTCACCTAGTGCAG	5520 fluorescence intensity (a.u.)
GACCGTTGCATTGACATGTAACCTCCAACGCATTGCCTCTCGGAGTCACCTAGTGCAG	5210 fluorescence intensity (a.u.)

Fetched one by one from the list above, 5 records:
Sequence	binding signal
TCCGCCTCGGCGCCACCTGACTCAGCCTCCCCTCCCCGGCCGGAGTCACCTAGTGCAG	10900 fluorescence intensity (a.u.)
AATCTATCGACGCCACCGATCGACCTACGCCTGCAAATTACGGAGTCACCTAGTGCAG	3770 fluorescence intensity (a.u.)
TTGTATGTAAATTGTGAGACGAATCTTTTGAGCCTAATTACGGAGTCACCTAGTGCAG	32500 fluorescence intensity (a.u.)
TGTTATAGTGTAATTATATATAATTACATTATAGCATATACGGAGTCACCTAGTGCAG	3420 fluorescence intensity (a.u.)
GGCATGGGCCCTGCGGTTCGGCGGCAGTGACGAGCGGCAACGGAGTCACCTAGTGCAG	3930 fluorescence intensity (a.u.)

Carrying on.

Sequence	binding signal
ACCTCCAAAGTTCACACATCCATCAATGTCATAACATGGACGGAGTCACCTAGTGCAG	3400 fluorescence intensity (a.u.)
CGATATATTACCCTAATGATGTGTCAGATGGGGATTGTTTCGGAGTCACCTAGTGCAG	10300 fluorescence intensity (a.u.)
TCATTTAGGTGTACACCTAAATGATCATTTTAGGTGTACACGGAGTCACCTAGTGCAG	3610 fluorescence intensity (a.u.)
AGGATGGGCGGGAGCACGTCAGACTTGGCACCCAGCACCTCGGAGTCACCTAGTGCAG	5400 fluorescence intensity (a.u.)
CCAGGTGATTAATACCATATCATGAGTTGGCAATGCTGAACGGAGTCACCTAGTGCAG	4290 fluorescence intensity (a.u.)
TTGGAATGACGCTTTAATTCCATGTAGTGCTATCTCTCCACGGAGTCACCTAGTGCAG	3480 fluorescence intensity (a.u.)
TGTAGGCTTCGGCTTCGTAGGCTGTGGTAGATGTGTTGGCCGGAGTCACCTAGTGCAG	3200 fluorescence intensity (a.u.)
TTTCACTCGTAGACTTTTCTTGTTTCTGAATGATTTTGAGCGGAGTCACCTAGTGCAG	3530 fluorescence intensity (a.u.)
GAAGGCGTGGAGGAGGAGGAGGAGGAGGGGTCCCAGTCGGCGGAGTCACCTAGTGCAG	4480 fluorescence intensity (a.u.)
GTACAATGCTTCACCATCAGCCCTTTGTCCTGCAGTACGTCGGAGTCACCTAGTGCAG	3700 fluorescence intensity (a.u.)
CCGAGGCAACGTGGAGCGCAGCCAACGCGATTAGGTGGCACGGAGTCACCTAGTGCAG	3300 fluorescence intensity (a.u.)
ATCAAACAAACCGTGATCGGTAATACATAGTCGGTTGAACCGGAGTCACCTAGTGCAG	10500 fluorescence intensity (a.u.)
AGATACATTGTTTCCTGCATGATCAATGACTCAAATCTCACGGAGTCACCTAGTGCAG	3740 fluorescence intensity (a.u.)
CGCGCGTGCGGTTCTTGTGTCCGAGGGTGGTGGTGTGTGGCGGAGTCACCTAGTGCAG	3360 fluorescence intensity (a.u.)
GGAATCATAGGATGGGCGGAGGACTCCTGATACTGGAGGCCGGAGTCACCTAGTGCAG	3650 fluorescence intensity (a.u.)
TTGTACGGCGGTGCCGGATTGGGGTGTGACAGCACTTTACCGGAGTCACCTAGTGCAG	8000 fluorescence intensity (a.u.)
CGAGCGTGACGACGTCAGCGTCCTCGGAACGCAAGGGCACCGGAGTCACCTAGTGCAG	8220 fluorescence intensity (a.u.)
AGCGGGCGGTAGTACTATTCATCTAAGATAAATCCTAGATCGGAGTCACCTAGTGCAG	3140 fluorescence intensity (a.u.)
GCGATCTGCCAACGCAGCACGCATAAAACCGACCGCCGCACGGAGTCACCTAGTGCAG	3600 fluorescence intensity (a.u.)
AATCCACGCACGCACAAGCGCCTCCGCCTCCTCACCTCCTCGGAGTCACCTAGTGCAG	5050 fluorescence intensity (a.u.)
AACTCAATCGTCCTTGCGGCCAGCTAAGCTACCAAAAGCCCGGAGTCACCTAGTGCAG	4760 fluorescence intensity (a.u.)

Sequence	binding signal
CAGTGAGATCCATCAAAAGCAAACACATCAGAAGCAGGATCGGAGTCACCTAGTGCAG	3410 fluorescence intensity (a.u.)
AACATCACTATACATACTTAAATTTAATGTTAGTTATCTCCGGAGTCACCTAGTGCAG	28800 fluorescence intensity (a.u.)
TGGGCATGGGCAACCATCCTTACCCGTCATGTAGTAATGGCGGAGTCACCTAGTGCAG	4340 fluorescence intensity (a.u.)
TTTTCCGGCCACGATGTCACGACTGCGCCATCACCATCCACGGAGTCACCTAGTGCAG	4230 fluorescence intensity (a.u.)
TTGTGTGCATTTCGGCATTTGGCTACAAGATTCTTGCAGTCGGAGTCACCTAGTGCAG	39600 fluorescence intensity (a.u.)
CGCCACGCCGCCGATTTATACCCACCTCGTCATGCGCCTCCGGAGTCACCTAGTGCAG	4840 fluorescence intensity (a.u.)
AAAGATTTGTCTCGCAATTTACACGCAATCTGTGTAATTACGGAGTCACCTAGTGCAG	3230 fluorescence intensity (a.u.)
ACCACATCACAGCAGTGAGGTGGTTGTTGGCGGAGGAGGGCGGAGTCACCTAGTGCAG	4690 fluorescence intensity (a.u.)
CACTGGACGCGTCACATTCACAACAGCATACTATAGTCAGCGGAGTCACCTAGTGCAG	7130 fluorescence intensity (a.u.)
TGCCCTGTTACGGTTGACAGCTAATTACCTTGATTCGTTTCGGAGTCACCTAGTGCAG	9620 fluorescence intensity (a.u.)
ACCTCCATGTGTCCGCCAGGTCATCATCATCGCCTCGTAGCGGAGTCACCTAGTGCAG	15900 fluorescence intensity (a.u.)
TATTGTCAGTGGCTTGCTTAAACAACATCAACAGTTCTTTCGGAGTCACCTAGTGCAG	31300 fluorescence intensity (a.u.)
CATCATCGACAGGTTTCTGTTCCTCAGATCCTTACACATTCGGAGTCACCTAGTGCAG	13800 fluorescence intensity (a.u.)
AGCCGCGCAAATTATACCGATCGCCATGTCAACAGACGACCGGAGTCACCTAGTGCAG	28900 fluorescence intensity (a.u.)
ATAAAATTTGGTAAGGCCTATTTAGGCCACAAACCAAACCCGGAGTCACCTAGTGCAG	3360 fluorescence intensity (a.u.)
AAACGTCCTTGATATATTGAAATTTGCTGATGCAACACTTCGGAGTCACCTAGTGCAG	5210 fluorescence intensity (a.u.)
AGCATTCATATCACATCGGTTTTCGTACTTTTAGCCGGATCGGAGTCACCTAGTGCAG	3160 fluorescence intensity (a.u.)
ATAAAATGAACGTAAGCTGACGCTGCTTTCGATTGGCTTGCGGAGTCACCTAGTGCAG	3900 fluorescence intensity (a.u.)
ATGCTGATGCGGTTGTGGTGCTGGTAGTTGCCTTGCGCGTCGGAGTCACCTAGTGCAG	3390 fluorescence intensity (a.u.)
ATAGTGTGCTGCCATTGGATGGCCACGTTGTCCATGAACTCGGAGTCACCTAGTGCAG	4940 fluorescence intensity (a.u.)
GGAGCACGACGCACCCAGCGAGCCAGCCATCACGTAAGCTCGGAGTCACCTAGTGCAG	4070 fluorescence intensity (a.u.)
